# Some of the results follow.
# Assays:
# Test in all cases: glycan array binding signal (z-score within array); higher = stronger binding
# Conditions in all cases: glycan notation: IUPAC condensed, linker removed
# [1] = biological target: Neu5Ac(a2-3)Gal(b1-4)GlcNAc(b1-6)GalNAc
# Summary of the method: (§1)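 Glycan array data came from 3228 arrays in the Consortium for Functional Glycomics database, and only arrays with an available protein sequence were kept. Glycan names were put into IUPAC-condensed notation, and columns mapping to the same glycan were averaged. The binding signal is a within-array Z-score, averaged across arrays of one protein sequence run at different concentrations or buffers and across linkers. A negative Z-score can be read as non-binding.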
# [2] = biological target: Neu5Ac(a2-3)Gal(b1-4)GlcNAc(b1-6)[Gal(b1-3)]GalNAc
# Summary of the method: as §1
# [3] = biological target: Neu5Ac(a2-3)Gal(b1-4)GlcNAc(b1-6)[Neu5Ac(a2-3)Gal(b1-3)]GalNAc
# Summary of the method: as §1
# [4] = biological target: Neu5Ac(a2-3)Gal(b1-4)GlcNAc6S
# Summary of the method: as §1
# [5] = biological target: Neu5Ac(a2-3)Gal(b1-4)[Fuc(a1-3)]GlcNAc
# Summary of the method: as §1
# [6] = biological target: Neu5Ac(a2-3)Gal(b1-4)[Fuc(a1-3)]GlcNAc(b1-2)Man
# Summary of the method: as §1
# [7] = biological target: Neu5Ac(a2-3)Gal(b1-4)[Fuc(a1-3)]GlcNAc(b1-3)Gal
# Summary of the method: as §1
# [8] = biological target: Neu5Ac(a2-3)Gal(b1-4)[Fuc(a1-3)]GlcNAc(b1-3)Gal(b1-4)GlcNAc
# Summary of the method: as §1
# [9] = biological target: Neu5Ac(a2-3)Gal(b1-4)[Fuc(a1-3)]GlcNAc(b1-3)Gal(b1-4)[Fuc(a1-3)]GlcNAc(b1-3)Gal(b1-4)[Fuc(a1-3)]GlcNAc
# Summary of the method: as §1
# [10] = biological target: Neu5Ac(a2-3)Gal(b1-4)[Fuc(a1-3)]GlcNAc(b1-3)GalNAc
# Summary of the method: as §1
# [11] = biological target: Neu5Ac(a2-3)Gal(b1-4)[Fuc(a1-3)]GlcNAc(b1-6)[Gal(b1-3)]GalNAc
# Summary of the method: as §1
# [12] = biological target: Neu5Ac(a2-3)Gal(b1-4)[Fuc(a1-3)]GlcNAc(b1-6)[Neu5Ac(a2-3)Gal(b1-3)]GalNAc
# Summary of the method: as §1
# [13] = biological target: Neu5Ac(a2-3)Gal(b1-4)[Fuc(a1-3)]GlcNAc6S
# Summary of the method: as §1
# [14] = biological target: Neu5Ac(a2-3)Gal6S(b1-4)GlcNAc
# Summary of the method: as §1
# [15] = biological target: Neu5Ac(a2-3)Gal6S(b1-4)[Fuc(a1-3)]GlcNAc
# Summary of the method: as §1
# Neu5Ac(a2-3)GalNAc = biological target: Neu5Ac(a2-3)GalNAc
# Summary of the method: as §1
# [16] = biological target: Neu5Ac(a2-3)GalNAc(b1-4)GlcNAc
# Summary of the method: as §1
# [17] = biological target: Neu5Ac(a2-3)[GalNAc(b1-4)]Gal(b1-4)Glc
# Summary of the method: as §1
# [18] = biological target: Neu5Ac(a2-3)[GalNAc(b1-4)]Gal(b1-4)GlcNAc
# Summary of the method: as §1
# [19] = biological target: Neu5Ac(a2-3)[GalNAc(b1-4)]Gal(b1-4)GlcNAc(b1-3)GalNAc
# Summary of the method: as §1
# [20] = biological target: Neu5Ac(a2-3)[Neu5Ac(a2-6)]GalNAc
# Summary of the method: as §1
# Neu5Ac(a2-6)Gal = biological target: Neu5Ac(a2-6)Gal
# Summary of the method: as §1
# [21] = biological target: Neu5Ac(a2-6)Gal(b1-3)GlcNAc(b1-3)[Gal(b1-4)GlcNAc(b1-6)]Gal(b1-4)Glc
# Summary of the method: as §1
# Neu5Ac(a2-6)Gal(b1-4)Glc = biological target: Neu5Ac(a2-6)Gal(b1-4)Glc
# Summary of the method: as §1
# [22] = biological target: Neu5Ac(a2-6)Gal(b1-4)GlcNAc
# Summary of the method: as §1
# [23] = biological target: Neu5Ac(a2-6)Gal(b1-4)GlcNAc(b1-2)Man
# Summary of the method: as §1
# [24] = biological target: Neu5Ac(a2-6)Gal(b1-4)GlcNAc(b1-2)Man(a1-3)Man(b1-4)GlcNAc(b1-4)GlcNAc
# Summary of the method: as §1
# [25] = biological target: Neu5Ac(a2-6)Gal(b1-4)GlcNAc(b1-2)Man(a1-3)[Gal(b1-4)GlcNAc(b1-2)Man(a1-6)]Man(b1-4)GlcNAc(b1-4)GlcNAc
# Summary of the method: as §1
# [26] = biological target: Neu5Ac(a2-6)Gal(b1-4)GlcNAc(b1-2)Man(a1-3)[GlcNAc(b1-2)Man(a1-6)]Man(b1-4)GlcNAc(b1-4)GlcNAc
# Summary of the method: as §1
# [27] = biological target: Neu5Ac(a2-6)Gal(b1-4)GlcNAc(b1-2)Man(a1-3)[GlcNAc(b1-4)][Neu5Ac(a2-6)Gal(b1-4)GlcNAc(b1-2)Man(a1-6)]Man(b1-4)GlcNAc(b1-4)GlcNAc
# Summary of the method: as §1
# [28] = biological target: Neu5Ac(a2-6)Gal(b1-4)GlcNAc(b1-2)Man(a1-3)[Man(a1-6)]Man(b1-4)GlcNAc(b1-4)GlcNAc
# Summary of the method: as §1
# [29] = biological target: Neu5Ac(a2-6)Gal(b1-4)GlcNAc(b1-2)Man(a1-3)[Neu5Ac(a2-3)Gal(b1-4)GlcNAc(b1-2)Man(a1-6)]Man(b1-4)GlcNAc(b1-4)GlcNAc
# Summary of the method: as §1
# [30] = biological target: Neu5Ac(a2-6)Gal(b1-4)GlcNAc(b1-2)Man(a1-3)[Neu5Ac(a2-6)Gal(b1-4)GlcNAc(b1-2)Man(a1-6)]Man(b1-4)GlcNAc(b1-4)GlcNAc
# Summary of the method: as §1
# [31] = biological target: Neu5Ac(a2-6)Gal(b1-4)GlcNAc(b1-2)Man(a1-3)[Neu5Ac(a2-6)Gal(b1-4)GlcNAc(b1-2)Man(a1-6)]Man(b1-4)GlcNAc(b1-4)[Fuc(a1-6)]GlcNAc
# Summary of the method: as §1
# [32] = biological target: Neu5Ac(a2-6)Gal(b1-4)GlcNAc(b1-2)Man(a1-6)Man(b1-4)GlcNAc(b1-4)GlcNAc
# Summary of the method: as §1
# [33] = biological target: Neu5Ac(a2-6)Gal(b1-4)GlcNAc(b1-2)Man(a1-6)[Gal(b1-4)GlcNAc(b1-2)Man(a1-3)]Man(b1-4)GlcNAc(b1-4)GlcNAc
# Summary of the method: as §1
# [34] = biological target: Neu5Ac(a2-6)Gal(b1-4)GlcNAc(b1-2)Man(a1-6)[GlcNAc(b1-2)Man(a1-3)]Man(b1-4)GlcNAc(b1-4)GlcNAc
# Summary of the method: as §1
# [35] = biological target: Neu5Ac(a2-6)Gal(b1-4)GlcNAc(b1-2)Man(a1-6)[Man(a1-3)]Man(b1-4)GlcNAc(b1-4)GlcNAc
# Summary of the method: as §1
# [36] = biological target: Neu5Ac(a2-6)Gal(b1-4)GlcNAc(b1-2)[Neu5Ac(a2-6)Gal(b1-4)GlcNAc(b1-4)]Man(a1-3)[GlcNAc(b1-4)][Neu5Ac(a2-6)Gal(b1-4)GlcNAc(b1-2)[Neu5Ac(a2-6)Gal(b1-4)GlcNAc(b1-6)]Man(a1-6)]Man(b1-4)GlcNAc(b1-4)GlcNAc
# Summary of the method: as §1
# [37] = biological target: Neu5Ac(a2-6)Gal(b1-4)GlcNAc(b1-2)[Neu5Ac(a2-6)Gal(b1-4)GlcNAc(b1-4)]Man(a1-3)[GlcNAc(b1-4)][Neu5Ac(a2-6)Gal(b1-4)GlcNAc(b1-4)Man(a1-6)]Man(b1-4)GlcNAc(b1-4)GlcNAc
# Summary of the method: as §1
# [38] = biological target: Neu5Ac(a2-6)Gal(b1-4)GlcNAc(b1-2)[Neu5Ac(a2-6)Gal(b1-4)GlcNAc(b1-6)]Man(a1-6)[Neu5Ac(a2-6)Gal(b1-4)GlcNAc(b1-2)Man(a1-3)][GlcNAc(b1-4)]Man(b1-4)GlcNAc(b1-4)GlcNAc
# Summary of the method: as §1
# [39] = biological target: Neu5Ac(a2-6)Gal(b1-4)GlcNAc(b1-3)Gal(b1-3)GlcNAc
# Summary of the method: as §1
# [40] = biological target: Neu5Ac(a2-6)Gal(b1-4)GlcNAc(b1-3)Gal(b1-4)GlcNAc
# Summary of the method: as §1
# [41] = biological target: Neu5Ac(a2-6)Gal(b1-4)GlcNAc(b1-3)Gal(b1-4)GlcNAc(b1-2)Man(a1-3)[Neu5Ac(a2-6)Gal(b1-4)GlcNAc(b1-3)Gal(b1-4)GlcNAc(b1-2)Man(a1-6)]GalNAc
# Summary of the method: as §1
# [42] = biological target: Neu5Ac(a2-6)Gal(b1-4)GlcNAc(b1-3)Gal(b1-4)GlcNAc(b1-3)Gal(b1-4)GlcNAc
# Summary of the method: as §1
# [43] = biological target: Neu5Ac(a2-6)Gal(b1-4)GlcNAc(b1-3)Gal(b1-4)GlcNAc(b1-3)Gal(b1-4)GlcNAc(b1-2)Man(a1-3)[Neu5Ac(a2-6)Gal(b1-4)GlcNAc(b1-3)Gal(b1-4)GlcNAc(b1-3)Gal(b1-4)GlcNAc(b1-2)Man(a1-6)]GalNAc
# Summary of the method: as §1
binder,measurement,setting,value
Mincle (Bos taurus) (protein) MNSSTSPASQTERRCFSFQLFSWAIAGTSILLLSACFITRCVVTYSIFQLCDEKKFQPPGDSMELSCYNDGSGSVKNCCPLKWFHFQSSCYLFSPDTMSWRASLKNCSSMGAHLVVINTQEEQEFLYYTKPRKKEFYIGLTDQVTEGQWQWVDGTPFTKSLSFWDAGEPNNLVIVEDCATIRDSSNPRQNWNDVPCFFNMFRVCEMPERKI,glycan array binding signal (z-score),[1],-1
same,glycan array binding signal (z-score),[2],-0.034
same,glycan array binding signal (z-score),[3],-0.537
same,glycan array binding signal (z-score),[4],-1.02
same,glycan array binding signal (z-score),[5],-0.612
same,glycan array binding signal (z-score),[6],-0.775
same,glycan array binding signal (z-score),[7],-0.328
same,glycan array binding signal (z-score),[8],0.264
same,glycan array binding signal (z-score),[9],-1.45
same,glycan array binding signal (z-score),[10],1.18
same,glycan array binding signal (z-score),[11],0.16
same,glycan array binding signal (z-score),[12],0.392
same,glycan array binding signal (z-score),[13],-0.654
same,glycan array binding signal (z-score),[14],-0.668
same,glycan array binding signal (z-score),[15],-1.05
same,glycan array binding signal (z-score),Neu5Ac(a2-3)GalNAc,-0.677
same,glycan array binding signal (z-score),[16],-0.33
same,glycan array binding signal (z-score),[17],-0.382
same,glycan array binding signal (z-score),[18],-0.65
same,glycan array binding signal (z-score),[19],1.35
same,glycan array binding signal (z-score),[20],-0.666
same,glycan array binding signal (z-score),Neu5Ac(a2-6)Gal,-0.231
same,glycan array binding signal (z-score),[21],-0.651
same,glycan array binding signal (z-score),Neu5Ac(a2-6)Gal(b1-4)Glc,-0.274
same,glycan array binding signal (z-score),[22],-0.729
same,glycan array binding signal (z-score),[23],0.078
same,glycan array binding signal (z-score),[24],-0.332
same,glycan array binding signal (z-score),[25],0.077
same,glycan array binding signal (z-score),[26],-0.237
same,glycan array binding signal (z-score),[27],-0.309
same,glycan array binding signal (z-score),[28],0.572
same,glycan array binding signal (z-score),[29],-0.408
same,glycan array binding signal (z-score),[30],0.087
same,glycan array binding signal (z-score),[31],0.527
same,glycan array binding signal (z-score),[32],0.271
same,glycan array binding signal (z-score),[33],-1
same,glycan array binding signal (z-score),[34],-0.23
same,glycan array binding signal (z-score),[35],0.239
same,glycan array binding signal (z-score),[36],-0.516
same,glycan array binding signal (z-score),[37],-0.396
same,glycan array binding signal (z-score),[38],-1.13
same,glycan array binding signal (z-score),[39],1.22
same,glycan array binding signal (z-score),[40],-0.895
same,glycan array binding signal (z-score),[41],0.482
same,glycan array binding signal (z-score),[42],-0.488
same,glycan array binding signal (z-score),[43],2.31

# A stretch from the list above, as a working copy:
binder,measurement,setting,value
Mincle (Bos taurus) (protein) MNSSTSPASQTERRCFSFQLFSWAIAGTSILLLSACFITRCVVTYSIFQLCDEKKFQPPGDSMELSCYNDGSGSVKNCCPLKWFHFQSSCYLFSPDTMSWRASLKNCSSMGAHLVVINTQEEQEFLYYTKPRKKEFYIGLTDQVTEGQWQWVDGTPFTKSLSFWDAGEPNNLVIVEDCATIRDSSNPRQNWNDVPCFFNMFRVCEMPERKI,glycan array binding signal (z-score),Neu5Ac(a2-6)Gal,-0.231
same,glycan array binding signal (z-score),[21],-0.651
